Measured values published in patent US4585861A, “1,2,4-triazine derivatives” (Eli Lilly and Company, priority 1985, dated 1986).
pEC50: −log10 of the molar value. At least one structure is not confirmed: it was looked up by name or label, or the drawing left a doubt.

How the values were obtained:
GABA receptor = assay: In vitro activation of GABA binding ([3H]GABA, Triton X-100 treated membrane protein); details: average of one or more tests, read-out: SC50 GABA (nanomolar concentration producing a 50% increase in binding)
Protocol: (§1) The novel compounds of this invention were examined for their in vitro ability to activate GABA and benzodiazepine (BZ) binding. To measure the effect of a compound on GABA binding, Triton X-100 (octylphenoxy polyethoxyethanol, Rohm and Haas Co.) treated membrane protein was incubated in the presence of the compound and [^3 H]GABA as detailed by Horng and Wong, J. Neurochemistry, 32 (5), 1379 (1979). To examine BZ binding, H-flunirazepam and the compounds were incubated with native membrane protein as reported by Wong, et al, Brain Res. Bull., 5 (Suppl. 2), 853 (1980). The results in Table 1 are the nanomolar concentrations of compounds (by Example No.) which produced a 50 percent increase (SC50) in GABA or BZ binding. Each result is the average of one or more tests.

benzodiazepine receptor = assay: In vitro activation of benzodiazepine (BZ) binding (flunirazepam, native membrane protein); details: average of one or more tests, read-out: SC50 BZ (nanomolar concentration producing a 50% increase in binding)
Protocol: as §1

| Compound | pEC50 (GABA receptor) | pEC50 (benzodiazepine receptor) |
| --- | --- | --- |
| Cc1ccc(-c2nnc(N3CCC(C)CC3)nc2-c2ccc(C)cc2)cc1 [Example 25, 5,6-bis(4-methylphenyl)-3-(4-methyl-1-piperidinyl)-1,2,4-triazine] | 7.15 | 7.74 |
| Cc1ccc(-c2nnc(N3CCC(O)C3)nc2-c2ccc(C)cc2)cc1 (stereo not drawn) [Example 18, 1-[5,6-bis(4-methylphenyl)-1,2,4-triazin-3-yl]-3-pyrrolidinol] | 5.30 | < 5.00 |
| OC1CCN(c2nnc(-c3ccc(Cl)cc3)c(-c3ccc(Cl)cc3)n2)CC1 [Example 11, 1-[5,6-bis(4-chlorophenyl)-1,2,4-triazin-3-yl]-4-piperidinol] | < 5.00 | 5.40 |
